# Literature values in US20110201620A1, “2-(3-AMINOARYL) AMINO-4-ARYL-THIAZOLES AND THEIR USE AS C-KIT INHIBITORS” (AB SCIENCE, priority 2002, published 2011).
# Test system: Human Kit exon 9
# Settings: read-out: Cell proliferation assay (IC50) Human Kit exon 9; cited from earlier work
structure (smiles),measurement,value
Cc1ccc(NC(=O)c2ccc(CN3CCN(C)CC3)cc2)cc1Nc1nccc(-c2cccnc2)n1 [imatinib],IC50,~200 nM
